In the supplement of paper PMC9671908:
The other results are listed elsewhere or left out. Most values come without repeats; read them as rough.

Tests used:
[1] = tested on: MIA PaCa-2 parental; test: parental cell viability relative to untreated parental control; higher = more surviving cells; settings: treatment time: 9 days
[2] = tested on: MIA PaCa-2 persister; test: persister cell viability relative to untreated persister control; higher = more surviving persister cells; settings: treatment time: 9 days; cell state: persister (100 nM gemcitabine + 100 nM Torin1)

Structure (SMILES) | parental cell viability [1] [%] | persister cell viability [2] [%]
Nc1nc2cc(CC[C@H]3C[C@@H](n4ccc5c(N)ncnc54)[C@H](O)[C@@H]3O)ccc2cc1Br (inhibitor concentration: 30µM) | 93 | 90.5
O=C(COc1ccc(Cl)cc1)NC1CCC(NC(=O)COc2ccc(Cl)cc2)CC1 (stereo not drawn) [trans-ISRIB] (inhibitor concentration: 10µM) | 101 | 64
COc1cccc(-n2c(=O)[nH]c3cc(Cl)n(-c4ccc(-c5cccc(OC)c5O)cc4)c3c2=O)c1 (inhibitor concentration: 30µM) | 78.5 | 150
COc1ccc(CNC(=O)Nc2ncc([N+](=O)[O-])s2)cc1 [GSK3β Inhibitor VIII] (inhibitor concentration: 3µM) | 78 | 108
